Results are given in words; binding and its absence hold for the method and conditions named. In cells and extracts the contact can be indirect. Some entries that bind do so weakly or less than the wild type. For part of these data: Sequences can lack the tags named with a protein.

Chains of the proteins cited; added tags and fusions are not shown. Lines headed by an entry give the natural chain unless they say otherwise; changes in a name come on top.
UniProt Q86WV6, whole entry: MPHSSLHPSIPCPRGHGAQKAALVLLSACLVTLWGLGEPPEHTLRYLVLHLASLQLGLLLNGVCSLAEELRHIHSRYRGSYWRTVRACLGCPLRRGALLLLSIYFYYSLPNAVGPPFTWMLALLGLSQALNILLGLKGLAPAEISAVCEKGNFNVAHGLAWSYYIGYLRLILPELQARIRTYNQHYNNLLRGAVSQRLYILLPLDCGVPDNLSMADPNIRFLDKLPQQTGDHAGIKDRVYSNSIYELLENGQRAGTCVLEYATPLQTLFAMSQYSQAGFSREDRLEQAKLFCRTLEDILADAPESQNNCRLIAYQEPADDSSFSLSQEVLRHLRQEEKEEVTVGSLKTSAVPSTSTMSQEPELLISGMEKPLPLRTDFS

The target of one experiment is viperin-5’Δ33-mCherry (UniProt Q8WXG1). As to the kind of experiment: co-IP.
A further experiment addresses viperin-3’Δ17-mCherry (UniProt Q8WXG1). As to the kind of experiment: co-IP.
The target of experiment [1] is T1, viperin-mCherry (UniProt Q8WXG1).
T1 sequence: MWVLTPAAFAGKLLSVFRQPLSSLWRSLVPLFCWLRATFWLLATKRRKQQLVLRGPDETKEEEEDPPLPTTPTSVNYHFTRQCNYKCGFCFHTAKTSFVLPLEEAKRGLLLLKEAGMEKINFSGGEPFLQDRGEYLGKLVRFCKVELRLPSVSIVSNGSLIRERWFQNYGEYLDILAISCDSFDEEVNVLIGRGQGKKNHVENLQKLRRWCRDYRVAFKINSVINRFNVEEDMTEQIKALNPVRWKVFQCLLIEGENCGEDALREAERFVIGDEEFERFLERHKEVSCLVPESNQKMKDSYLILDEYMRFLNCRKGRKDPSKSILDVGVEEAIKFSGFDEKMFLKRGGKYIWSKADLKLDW
Description: co-IP.

For another experiment, the target named is T2, viperin-flag (UniProt Q8WXG1).
T2 sequence: T1 sequence
As to the kind of experiment: proximity ligation.

Experiment [2] addresses T1, viperin-mCherry. As to the kind of experiment: co-IP + cross-linking.

Take STING-myc (from UniProt Q86WV6 1-379): the binding entry in the experiment with viperin-5’Δ33-mCherry, in the experiment with viperin-3’Δ17-mCherry and in the experiment with viperin-mCherry [1] was “binds” each time.
With “endogenous STING (from UniProt Q86WV6 1-379)”, the binding entry with viperin-flag is listed as “binds”.

B1: TBK1-myc (protein, UniProt Q9UHD2 1-729)
chain: MQSTSNHLWLLSDILGQGATANVFRGRHKKTGDLFAIKVFNNISFLRPVDVQMREFEVLKKLNHKNIVKLFAIEEETTTRHKVLIMEFCPCGSLYTVLEEPSNAYGLPESEFLIVLRDVVGGMNHLRENGIVHRDIKPGNIMRVIGEDGQSVYKLTDFGAARELEDDEQFVSLYGTEEYLHPDMYERAVLRKDHQKKYGATVDLWSIGVTFYHAATGSLPFRPFEGPRRNKEVMYKIITGKPSGAISGVQKAENGPIDWSGDMPVSCSLSRGLQVLLTPVLANILEADQEKCWGFDQFFAETSDILHRMVIHVFSLQQMTAHKIYIHSYNTATIFHELVYKQTKIISSNQELIYEGRRLVLEPGRLAQHFPKTTEENPIFVVSREPLNTIGLIYEKISLPKVHPRYDLDGDASMAKAITGVVCYACRIASTLLLYQELMRKGIRWLIELIKDDYNETVHKKTEVVITLDFCIRNIEKTVKVYEKLMKINLEAAELGEISDIHTKLLRLSSSQGTIETSLQDIDSRLSPGGSLADAWAHQEGTHPKDRNVEKLQVLLNCMTEIYYQFKKDKAERRLAYNEEQIHKFDKQKLYYHATKAMTHFTDECVKKYEAFLNKSEEWIRKMLHLRKQLLSLTNQCFDIEEEVSKYQEYTNELQETLPQKMFTASSGIKHTMTPIYPSSNTLVEMTLGMKKLKEEMEGVVKELAENNHILERFGSLTMDGGLRNVDCL
On to B1, for which the binding entry with viperin-mCherry [1] and with viperin-mCherry [2] was “no binding” throughout.

(Values after publication doi:10.1101/493098.)
